Target: T1, Gamma-aminobutyric acid receptor subunit alpha-5 (Homo sapiens, UniProt P31644)
T1 sequence (P31644 whole entry): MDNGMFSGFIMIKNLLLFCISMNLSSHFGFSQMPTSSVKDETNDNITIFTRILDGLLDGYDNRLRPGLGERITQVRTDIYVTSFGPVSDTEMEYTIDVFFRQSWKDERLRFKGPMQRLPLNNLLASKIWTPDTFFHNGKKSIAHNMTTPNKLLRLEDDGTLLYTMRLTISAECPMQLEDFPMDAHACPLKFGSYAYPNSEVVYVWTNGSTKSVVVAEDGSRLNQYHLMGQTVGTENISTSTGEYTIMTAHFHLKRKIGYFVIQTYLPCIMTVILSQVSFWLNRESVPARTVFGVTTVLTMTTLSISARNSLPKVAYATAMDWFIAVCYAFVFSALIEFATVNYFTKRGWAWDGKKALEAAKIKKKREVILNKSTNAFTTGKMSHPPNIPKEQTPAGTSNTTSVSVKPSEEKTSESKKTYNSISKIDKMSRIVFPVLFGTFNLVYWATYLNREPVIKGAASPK
Experiment: Binding affinity to GABA-A alpha5 (unknown origin)

CN1C(=O)CN=C(c2ccccc2)c2cc(Cl)ccc21 [DIAZEPAM]
Ki: 15 nM
